# From PubChem BioAssay AID2685 (National Center for Advancing Translational Sciences (NCATS), 2010)
# Out of some 320,000 compounds screened, about 2,100 (0.66%) were called active. Inconclusive means that the source gave no clear call. Such entries were picked first, then a sample of the others. Calls follow the shape of the dose curve; as a rule, active = well fitted inhibition curve with a large enough effect in the signal ratio, with a control signal flat (not every such curve was filed as active); inconclusive = small, poorly fitted or top-dose-only effect, or effect the other way, or a change in a side signal; inactive = flat fitted curve, though single readings scatter; the % refers to the signal ratio. A potency beside an inconclusive call is a rough fit, not a confirmed value.
# Experiment: qHTS Assay for Lipid Storage Modulators in Drosophila S3 Cells
# Conditions: BODIPY lipid droplet fluorescence, 18-24 h, cells fed with added oleic acid; lipid storage change, negative = inhibition: at 46.1 µM (top of the series) unless noted
# Procedure, shortened: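 Drosophila S3 cells loaded with oleic acid (400 uM, as added) and compounds at several concentrations; lipid droplets imaged by 488-nm laser-scanning cytometry, 500–530 nm intensity and object ratio to cell channel. Percent activity normalized to 20 uM Triacsin C.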
# % is scaled to controls: 0 for no effect and ±100 for the full control effect; potency is read from the fitted curve at half-maximal effect.
SMILES,"lipid storage change, negative = inhibition",Potency
CCCNS(=O)(=O)c1ccc(CCC(=O)NCc2ccc3c(c2)OCO3)cc1,inconclusive: 5.66%,
Cn1c(SCC(=O)NCc2ccco2)nnc1-c1cccs1,inconclusive: 24.5%,
COc1ccc(Nc2nnc(SCc3cn4c(C)cccc4n3)s2)cc1,inconclusive: 15.7%,
CC(C)OCCOc1ccc2oc(-c3ccco3)cc(=O)c2c1,,"inconclusive: 29.1 µM [falling, single point]"
O=C(CN1CCN(Cc2ccccc2)C1=O)NCCCN1CCOCC1,inconclusive: 3.9%,
Cc1ccc(OCC(=O)Nc2cccnc2Cl)cc1C,inconclusive: 71.1%,
O=C(CSc1nnc(C2CC2)n1CC1CCCO1)Nc1ccc(Cl)cc1 (stereo not drawn),,"inconclusive: 29.1 µM [activator, single point]"
COC(=O)CSc1nnc(-c2sc3cc(OC)ccc3c2Cl)n1C,,"inconclusive: 16.4 µM [falling, single point]"
O=C(COC(=O)c1ccc([N+](=O)[O-])s1)NCc1ccc(F)cc1,inconclusive: -17.1%,
Cc1cccn2c(=O)c3cc(C(=O)NCc4ccco4)c(=N)n(C(C)C)c3nc12,,"inconclusive: 0.82 µM [activator, single point]"
Cc1ccn2cc(-c3ccc(NC(=O)c4ccco4)cc3)nc2c1,inconclusive: 24.4%,
COCc1nc2ccccc2n1CCc1ccccc1,inconclusive: -31.3%,
CC1CCC2(CC1)NC(=O)N(CC(=O)Nc1cccc(C#N)c1)C2=O (stereo not drawn),,"inconclusive: 1.64 µM [falling, partial curve]"
O=C(Nc1ccc(N2CCN(C(=O)c3cccs3)CC2)cc1)c1ccco1,inconclusive: 71.1%,
COc1ccc(-c2c(C)n([O-])c(C)c(C)[n+]2=O)cc1,inconclusive: -14.6%,
O=C(O)c1cc(NCc2cccs2)ccc1N1CCOCC1,inconclusive: -44.9%,
CC(=O)c1ccc(N2Cc3ccccc3C2)cc1,inconclusive: 23.3%,
Cc1noc(C)c1C(=O)N1CCN(Cc2ccc3c(c2)OCO3)CC1,inconclusive: 13.2%,
COc1ccc(C2=NOC(C(=O)Nc3ccc4c(c3)OCO4)C2)cc1 (stereo not drawn),inactive,
COc1cc(NC(=O)NNC(=O)c2cc3occc3n2C)cc(OC)c1OC,,"inconclusive: 29.1 µM [activator, partial curve, poor fit]"
COc1ccccc1C1=NOC(C(=O)N2CCN(C(=O)c3ccco3)CC2)C1 (stereo not drawn),,"inconclusive: 11.6 µM [activator, partial curve, poor fit]"
Cc1ccc(S(=O)(=O)N2CCOCC2)cc1NC(=O)CSc1nnnn1C,,"inconclusive: 1.3 µM [falling, partial curve]"
Cc1ccc(C(C)C)c(OCCCCN2CCNCC2)c1,,"inconclusive: 13 µM [activator, partial curve, poor fit]"
CCCC(=O)Nc1ccc2oc(-c3cccnc3)nc2c1,,"inconclusive: 29.1 µM [rising, single point]"
CCOC(=O)c1c(NC(=O)COC(=O)Cc2n[nH]c(=O)c3ccccc23)sc(C(=O)N(C)C)c1C,,"inconclusive: 7.31 µM [activator, partial curve]"
NNC(=O)c1cc2c(N3CCC(Cc4ccccc4)CC3)ncnc2s1,inconclusive: -6.12%,

SMILES,"lipid storage change, negative = inhibition",Potency
O=C1C=C(c2cc(F)ccc2F)C[C@@H](c2ccc(F)cc2)C1,inconclusive: 13.8%,
Cc1ccc(-c2csc(NC(=O)c3cccc(S(=O)(=O)N4CCN(C)CC4)c3)n2)cc1,inactive,
COc1ccc(NC(=O)c2cc(S(=O)(=O)N3CCCCC3)ccc2OC)cc1,inactive,
COCC1CCN(C(=O)c2ccc(OC)c(OC3CCN(C(C)C)CC3)c2)CC1,inactive,
C=CCN=c1scc(-c2ccc(F)cc2)n1/N=C/c1ccccn1,inconclusive: -20.6%,
CCN(CC)CC(=O)Nc1ccc(/C(C)=N/NC2=NCCN2)cc1,inconclusive: 12.6%,
Cc1ccc(Oc2nc(CN3CCOCC3)nc3sc4c(c23)CCC(C)C4)cc1C (stereo not drawn),inconclusive: 14.6%,
CC(C)c1ccc(NC(=S)NNC(=O)c2cccnc2)cc1,,"inconclusive: 32.6 µM [cytotoxic, partial curve, poor fit]"
Cc1c(NC(=O)Nc2cc(Cl)ccc2Cl)c(=O)n(-c2ccccc2)n1C,inconclusive: 40.7%,
Cc1cccc(-c2nnc(SC(C)C(=O)N3CCOCC3)o2)c1 (stereo not drawn),,"inconclusive: 0.0058 µM [falling, full curve, poor fit]"
Cc1cccc(C)c1Nc1nc2ccccc2o1,,"inconclusive: 0.517 µM [activator, partial curve]"
O=C(O)C1CSCN1S(=O)(=O)c1cccc2nsnc12 (stereo not drawn),inconclusive: -21.4%,
CCn1cnc2cc(NCc3ccc(Cl)cc3)ccc21,inconclusive: 16.6%,
NS(=O)(=O)c1ccc(CCNC(=O)CSCc2ccccc2)cc1,inconclusive: 15.9%,
Cc1ccccc1C(=O)NCc1nnc(SCC(=O)N2c3ccccc3Sc3ccccc32)n1C,inconclusive: -17.4%,
CC(=O)NC(CC(=O)NCCc1ccccc1)c1ccccc1 (stereo not drawn),inconclusive: 86.3%,
c1ccc(-c2nc3nc4ccccc4nc3n2CC2CCCO2)cc1 (stereo not drawn),inconclusive: 4.76%,
O=C(NCc1ccccc1)c1ccc(F)c(F)c1,inconclusive: -7.3%,
Cc1ccc(-c2nnn(CC(=O)NCCc3ccc4c(c3)OCO4)n2)cc1,inconclusive: 29.5%,
CCOC(=O)c1c(/C=N/Nc2ccccc2)c2sc(C)cc2n1C,,"inconclusive: 25.9 µM [activator, single point]"
O=C(c1ccco1)N1CCN(C(=O)C(Cc2ccccc2)NS(=O)(=O)c2cccs2)CC1 (stereo not drawn),inconclusive: 11.4%,
Cc1ccc(N2CC(C(=O)OCc3ccccc3)CC2=O)cc1 (stereo not drawn),,"inconclusive: 29.1 µM [falling, single point]"
CC(=O)N(C(C)=O)c1nc(-c2ccccc2)cn1/N=C/c1ccccc1,,active: 1.64 µM
COc1ccc(NC(=O)CN2CCN(CC(=O)Nc3ccc(OC)c(OC)c3)CC2)cc1,,"inconclusive: 18.4 µM [activator, single point]"
CCC(NC(=O)NNC(=O)c1ccncc1)(C(F)(F)F)C(F)(F)F,inconclusive: -12.1%,
COCCN(C(=O)COC(=O)CCSc1ccc(F)cc1)c1c(N)n(Cc2ccccc2)c(=O)[nH]c1=O,inconclusive: 26.7%,

# Part of the list above, tab-delimited:
SMILES	lipid storage change, negative = inhibition	Potency
COC(=O)CSc1nnc(-c2sc3cc(OC)ccc3c2Cl)n1C		inconclusive: 16.4 µM [falling, single point]
O=C(COC(=O)c1ccc([N+](=O)[O-])s1)NCc1ccc(F)cc1	inconclusive: -17.1%	
Cc1cccn2c(=O)c3cc(C(=O)NCc4ccco4)c(=N)n(C(C)C)c3nc12		inconclusive: 0.82 µM [activator, single point]
Cc1ccn2cc(-c3ccc(NC(=O)c4ccco4)cc3)nc2c1	inconclusive: 24.4%	
COCc1nc2ccccc2n1CCc1ccccc1	inconclusive: -31.3%	

# (list continues)

SMILES,"lipid storage change, negative = inhibition",Potency
N#CC(C(=O)OCc1ccccc1)c1nc2ccccc2nc1N1CCOCC1 (stereo not drawn),,"inconclusive: 0.517 µM [activator, full curve]"
CCOC(=O)N/N=C\c1ccc(OC(=O)c2ccc3c(c2)OCO3)cc1,inconclusive: 9.84%,
CCCCNC(=O)c1ccc(CS(=O)(=O)c2cccc(C(F)(F)F)c2)o1,inconclusive: -11.5%,
CC1CCCCN1C(=O)CSc1nc(N)cc(=O)[nH]1 (stereo not drawn),inconclusive: -11.8%,
CC(=O)N1CCN(C(=O)/C(C#N)=C/c2ccc3c(c2)OCO3)CC1,inconclusive: 20.3%,
Cn1nc(C(=O)NCc2cccc(Cl)c2)c2c1-c1ccccc1S(=O)(=O)C2,,"inconclusive: 29.1 µM [rising, single point]"
C=CCC1c2cccc(C(=O)O)c2C(=O)N1c1cccc(C)c1 (stereo not drawn),inconclusive: -31.6%,
CCCOc1ccc(NC(=O)C2CC(=O)N(C(C)C)C2)cc1 (stereo not drawn),inconclusive: -3.69%,
COc1ccc(N(CC(=O)NCCC2=CCCCC2)S(=O)(=O)c2c(C)[nH]c(=O)[nH]c2=O)cc1,inconclusive: -26.2%,
Cc1ccccc1N(C)S(=O)(=O)c1nnc(NC(=O)c2ccccc2F)s1,inconclusive: 43.7%,
CC(C)CN(C(=O)C1CCCC1)C1CCS(=O)(=O)C1 (stereo not drawn),inactive,
Cc1ccccc1Nc1nc(N)nc(CN2CCN(c3ccccn3)CC2)n1,,"inconclusive: 1.84 µM [activator, full curve]"
CCc1ccc(NC2=NCC(c3ccccc3)S2)cc1 (stereo not drawn),inconclusive: -14.6%,
NC(=O)C1CCN(c2ncnc3c2c(-c2ccccc2)cn3-c2ccccc2)CC1,,"inconclusive: 6.51 µM [falling, single point]"
CCOC(=O)c1[nH]c(C)c(/C(O)=C2\C(=O)C(=O)N(CCCN(C)C)C2c2cccnc2)c1C (stereo not drawn),inconclusive: 13.3%,
Cc1nc(NC(=O)C2CC2)sc1C(=O)Nc1cccc(Cl)c1,,"inconclusive: 29.1 µM [falling, single point]"
CCC1CCCCN1Cc1ccc(OC)c(OC)c1 (stereo not drawn),,"inconclusive: 29.1 µM [falling, single point]"
N#Cc1c(NC(=O)c2ccccc2Cl)n(Cc2ccccc2)c2nc3ccccc3nc12,inconclusive: -18.2%,
O=C(CN1C(=O)/C(=C/c2cccc(Br)c2)SC1=S)NCCCN1CCOCC1,inactive,
Nc1nonc1C(=O)NCCNC(=O)c1ccc(Cl)c(Cl)c1,inconclusive: -6.39%,
CC(=O)Nc1cccc(NC(=O)CSc2n[nH]c(-c3ccccc3)n2)c1,,"inconclusive: 29.1 µM [activator, single point]"
CCSc1ccccc1C(=O)Nc1ccc([N+](=O)[O-])cc1OC,inconclusive: -15%,
CC(=O)Nc1ccc(S(=O)(=O)N2CCSC2c2ccccc2)cc1 (stereo not drawn),inconclusive: -48.6%,
O=C(CN1C(=O)C(=O)N(C2CCCC2)C1=O)Nc1ccc(F)cc1F,inconclusive,
CCOC(=O)c1cccc(NC(=S)N2CCN(c3ncc4c(=O)c(C(=O)O)cn(CC)c4n3)CC2)c1,inconclusive: 41.9%,
CCOc1ccc(CNC(=O)CCC(=O)n2nc(C)c3ccccc32)cc1,inconclusive: -24.2%,
